Earlier results, collected in US20240307561A1, “RA[…] INHIBITOR CONJUGATES FOR CANCER TREATMENT” (DUKE UNIVERSITY, priority 2021, published 2024).
Some results were stated once for a whole list of compounds, not compound by compound. At least one compound was matched to its structure with a doubt left.

Amino acid sequences for entries named in this document (tags omitted).
UniProt P09874, whole entry: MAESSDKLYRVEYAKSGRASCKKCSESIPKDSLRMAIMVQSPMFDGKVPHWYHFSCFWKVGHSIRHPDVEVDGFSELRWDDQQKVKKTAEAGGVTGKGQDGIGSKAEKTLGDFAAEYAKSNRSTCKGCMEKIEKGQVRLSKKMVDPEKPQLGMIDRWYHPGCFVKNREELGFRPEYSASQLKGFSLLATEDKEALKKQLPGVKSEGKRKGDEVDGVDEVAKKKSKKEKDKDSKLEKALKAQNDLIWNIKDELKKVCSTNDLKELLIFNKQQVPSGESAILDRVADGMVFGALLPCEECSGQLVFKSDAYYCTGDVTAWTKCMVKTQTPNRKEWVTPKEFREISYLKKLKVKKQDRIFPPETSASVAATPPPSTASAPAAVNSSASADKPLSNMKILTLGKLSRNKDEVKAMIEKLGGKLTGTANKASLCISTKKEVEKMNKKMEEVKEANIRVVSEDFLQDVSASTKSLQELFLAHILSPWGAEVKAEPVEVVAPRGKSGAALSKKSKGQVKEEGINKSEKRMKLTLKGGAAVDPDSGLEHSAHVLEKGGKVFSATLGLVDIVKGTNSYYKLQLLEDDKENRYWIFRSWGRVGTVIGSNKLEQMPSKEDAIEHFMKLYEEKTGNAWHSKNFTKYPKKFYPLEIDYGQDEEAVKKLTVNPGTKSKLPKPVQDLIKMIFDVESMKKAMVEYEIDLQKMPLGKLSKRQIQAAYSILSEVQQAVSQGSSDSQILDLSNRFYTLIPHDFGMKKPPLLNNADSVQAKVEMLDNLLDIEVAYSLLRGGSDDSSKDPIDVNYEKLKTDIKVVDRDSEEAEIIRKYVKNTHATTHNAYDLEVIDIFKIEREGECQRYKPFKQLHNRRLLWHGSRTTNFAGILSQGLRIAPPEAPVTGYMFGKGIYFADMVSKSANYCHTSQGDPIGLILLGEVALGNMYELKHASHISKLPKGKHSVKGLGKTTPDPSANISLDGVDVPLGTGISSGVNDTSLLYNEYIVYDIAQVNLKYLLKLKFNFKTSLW

Molecular target: PARP-1 (Homo sapiens, UniProt P09874)
Details: compared to uninhibited PARP-1; cited from earlier work

For `NC(=O)c1cccc([C@@H]2O[C@H](COP(=O)(O)OP(=O)(O)OC[C@H]3O[C@@H](n4cnc5c(N)ncnc54)[C@H](O)[C@@H]3O)[C@@H](O)[C@H]2O)c1` [BAD, benzamide adenine dinucleotide], the “PARP inhibitor type (effect on PARP-1 DNA binding affinity and release of PARP-1 from DNA)” value is listed as “Type I (Type I inhibitors exhibit an apparent equilibrium binding affinity (KD) of less than about 25 nM and/or a dissociation rate constant (kd) of less than about 1.52×10^−3 s^−1)”.
